Experimental findings from patent US10174075 (dated 2019) are described below.

Ends that are not written are not given here.

The series is described as follows: general procedure: solution-phase peptide synthesis; EDC/HOOBt; HBTU/DIPEA; EDC/HOBt. The following applies: TPB salt, HCl salt.
Setting [1] is: coupling step, based on NMR content.

As for “Z-Trp-Trp-Pro-Trp-Arg-Arg-Lys(Boc)-NH2.2TPB”, under setting [1], the step yield is recorded as 98%.
With “Z-Arg-Trp-Pro-Trp-Trp-Pro-Trp-Arg-Arg-Lys(Boc)-NH2.3TPB”, under setting [1], the step yield amounted to 87%.
As for 2HCl.H-Trp-Arg-Arg-Lys(Boc)-NH2, where the note is “late stage modification step, based on the titration”, the step yield worked out at 95%.
Turning to “2HCl.H-Trp-Trp-Pro-Trp-Arg-Arg-Lys(Boc)-NH2”, where the note is “late stage modification step, based on titration”, the step yield is reported as 82%.
For Z-Trp-Arg-Arg-Lys(Boc)-NH2.2TPB, the step yield (coupling step, based on titration content) is listed as 83%.
Consider RWPWWPWRRK, for which the step yield (late stage modification step, based on NMR content measurement) is reported as 93%.
